# Measurements: PubChem BioAssay AID2685 (National Center for Advancing Translational Sciences (NCATS), 2010)
# The other results are listed elsewhere or left out. Shown are side measurements of this screen, not its main read-out; they come without a call. Most of these compounds were active or inconclusive in the main read-out, so they are no random draw. Potencies come from curve fits of mixed quality, noted in brackets.
# Assay: qHTS Assay for Lipid Storage Modulators in Drosophila S3 Cells;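 for cell number change: cells counted by Cell Tracker Red CMTPX staining in the red channel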
# Details: BODIPY lipid droplet fluorescence, 18-24 h; for cell number change: measured here: cell count max response, cells fed with added oleic acid
# Summary of the method: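 Drosophila S3 cells loaded with oleic acid (400 uM, as added) and compounds at several concentrations; lipid droplets imaged by 488-nm laser-scanning cytometry, 500–530 nm intensity and object ratio to cell channel. Percent activity normalized to 20 uM Triacsin C.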
# [1] = measured here: lipid fluorescence (Fed channel) AC50, cells fed with added oleic acid
# [2] = measured here: cell number channel AC50, cells fed with added oleic acid
SMILES,cell number change [%],AC50 [1],AC50 [2]
O=C(CN1C(=O)NC(c2ccccc2)(c2ccccc2)C1=O)NC1CCS(=O)(=O)C1 (stereo not given),5.4,"0.461 µM [rising, full curve, poor fit]",–
O=C(Nc1cc(Cl)ccc1-n1cncn1)c1ccc(Br)o1,-59.4,–,–
CSc1nnc([C@@H]2CCCN2C(=O)OC(C)(C)C)o1,15.2,–,"0.164 µM [rising, full curve, poor fit]"
O=C(CC1SC(=Nc2cccc3ccccc23)N(Cc2ccccn2)C1=O)Nc1ccccc1Br (stereo not given),-11.9,"0.651 µM [rising, single point]",–
CCN1CCN(C(=S)NC(=O)c2cccs2)CC1,2.86,–,–
O=C1CC(c2nc3ccccc3[nH]2)CN1c1ccccc1 (stereo not given),–,–,"0.58 µM [rising, single point]"
CN(C)C(CNC(=O)c1ccc(S(=O)(=O)Nc2ccccc2F)cc1)c1ccccc1 (stereo not given),40.9,–,"11.6 µM [rising, partial curve, poor fit]"
NC(=O)c1cnn2c(C(F)(F)F)cc(-c3ccc(F)cc3)nc12,-19.2,–,–
COc1ccc(C(=O)NC2CCCc3c2cnn3-c2cccc(C)c2C)o1 (stereo not given),-25.1,"2.06 µM [falling, full curve]","5.8 µM [falling, single point]"
O=C(/C=C(\c1ccccc1)n1cncn1)c1ccccc1,11.2,"3.26 µM [rising, single point]",–
COc1ccc(NC(=O)COC(=O)Cc2ccc(Br)cc2)cc1,36,"29.1 µM [rising, single point]","4.61 µM [rising, full curve, poor fit]"
O=C(CN1CCOCC1)N1CCN(c2nnc(-c3ccccc3)c3ccccc23)CC1,–,"6.51 µM [falling, single point]",–
O=C(CCNC(=O)c1ccc(Br)cc1)Nc1nc2ccccc2[nH]1,39,–,"2.59 µM [rising, full curve]"
Clc1ccc(Nc2nc(C3CC3)cs2)cc1,-15.9,–,–
COCCCN(C(=O)c1ccco1)c1nc(-c2ccc(OC)cc2)cs1,-33.2,"20.6 µM [falling, single point]","16.4 µM [falling, partial curve, poor fit]"
Cc1ccc2c(c1)C1CN(C)CCC1N2C(=O)c1ccccc1NS(=O)(=O)c1ccc(F)cc1 (stereo not given),1.41,"4.11 µM [rising, partial curve, poor fit]",–
CCOc1nc(C)ccc1-c1noc(-c2ccccc2OC)n1,-11.8,"6.51 µM [falling, single point]",–

# Reprinted at random: two records from the list
SMILES,cell number change [%],AC50 [1],AC50 [2]
COc1ccc(C(=O)NC2CCCc3c2cnn3-c2cccc(C)c2C)o1 (stereo not given),-25.1,"2.06 µM [falling, full curve]","5.8 µM [falling, single point]"
O=C(CC1SC(=Nc2cccc3ccccc23)N(Cc2ccccn2)C1=O)Nc1ccccc1Br (stereo not given),-11.9,"0.651 µM [rising, single point]",–

# Following part

SMILES,cell number change [%],AC50 [1],AC50 [2]
COc1ccc(-n2c(C)nc3c(cnn3-c3ccc(Cl)cc3)c2=O)cc1,-17.9,–,–
c1csc(-c2nc(N3CCOCC3)c3ccccc3n2)c1,-7.83,–,–
CCOCC(=O)Nc1ccc(S(=O)(=O)NCCc2ccccc2)cc1,-9.95,–,–
O=C(COC(=O)/C=C/c1ccco1)Nc1ccc(F)cc1Cl,–,"0.116 µM [falling, single point]",–
CCN(CC)C(=O)CSc1nc2c(sc(=S)n2CC)c(=O)n1-c1ccccc1,1.55,–,–
CCOC(=O)N1CCN(c2ccc(F)cc2[N+](=O)[O-])CC1,35.2,"5.17 µM [rising, partial curve, poor fit]","2.91 µM [rising, partial curve]"
Cc1ccc(NC(=O)C2CC2C)cc1S(=O)(=O)N1CCOCC1 (stereo not given),–,"0.0259 µM [rising, partial curve, poor fit]",–
CCC1(C)Cc2ccccc2-c2[nH]c(=S)[nH]c(=O)c21 (stereo not given),-7.3,–,–
CCc1ccc(/C=N/n2c(C3CCCCC3)n[nH]c2=S)cc1,-15.3,–,–
COc1ccc(S(=O)(=O)N2CCCC(C(=O)NCCCn3ccnc3)C2)cc1OC (stereo not given),-25.7,"29.1 µM [falling, partial curve]",–
COc1ccc(OC)c(S(N)(=O)=O)c1,-216,–,"29.1 µM [falling, single point]"
NS(=O)(=O)c1ccc(NC(=O)COc2ccc(S(=O)(=O)N3CCCC3)cc2)cc1,15.2,"14.6 µM [rising, partial curve]",–
Cc1cc(Cl)ccc1OCC(=O)N1CCN(c2ncccn2)CC1,22.8,–,–
COc1ccc(NC(=O)CC2C(=O)N(Cc3ccccc3)C(=S)N2CCN2CCOCC2)cc1 (stereo not given),-5.3,–,–
Cc1cc(C(=O)COc2ccc(-c3nnco3)cc2)c(C)n1Cc1ccccc1,-32.3,–,"25.9 µM [falling, partial curve]"
Cc1ccc(NC2CCCN(C(=O)c3cc(C(C)C)[nH]n3)C2)cc1C (stereo not given),14.5,–,"0.00461 µM [rising, full curve, poor fit]"
O=C(Cn1ccc(C(F)(F)F)n1)N/N=C/c1cccs1,-6.5,–,–
